This note sets out measurements from paper PMC7350744.

By UniProt entry, the sequences of proteins in these tests, tags left out.
UniProt O14497: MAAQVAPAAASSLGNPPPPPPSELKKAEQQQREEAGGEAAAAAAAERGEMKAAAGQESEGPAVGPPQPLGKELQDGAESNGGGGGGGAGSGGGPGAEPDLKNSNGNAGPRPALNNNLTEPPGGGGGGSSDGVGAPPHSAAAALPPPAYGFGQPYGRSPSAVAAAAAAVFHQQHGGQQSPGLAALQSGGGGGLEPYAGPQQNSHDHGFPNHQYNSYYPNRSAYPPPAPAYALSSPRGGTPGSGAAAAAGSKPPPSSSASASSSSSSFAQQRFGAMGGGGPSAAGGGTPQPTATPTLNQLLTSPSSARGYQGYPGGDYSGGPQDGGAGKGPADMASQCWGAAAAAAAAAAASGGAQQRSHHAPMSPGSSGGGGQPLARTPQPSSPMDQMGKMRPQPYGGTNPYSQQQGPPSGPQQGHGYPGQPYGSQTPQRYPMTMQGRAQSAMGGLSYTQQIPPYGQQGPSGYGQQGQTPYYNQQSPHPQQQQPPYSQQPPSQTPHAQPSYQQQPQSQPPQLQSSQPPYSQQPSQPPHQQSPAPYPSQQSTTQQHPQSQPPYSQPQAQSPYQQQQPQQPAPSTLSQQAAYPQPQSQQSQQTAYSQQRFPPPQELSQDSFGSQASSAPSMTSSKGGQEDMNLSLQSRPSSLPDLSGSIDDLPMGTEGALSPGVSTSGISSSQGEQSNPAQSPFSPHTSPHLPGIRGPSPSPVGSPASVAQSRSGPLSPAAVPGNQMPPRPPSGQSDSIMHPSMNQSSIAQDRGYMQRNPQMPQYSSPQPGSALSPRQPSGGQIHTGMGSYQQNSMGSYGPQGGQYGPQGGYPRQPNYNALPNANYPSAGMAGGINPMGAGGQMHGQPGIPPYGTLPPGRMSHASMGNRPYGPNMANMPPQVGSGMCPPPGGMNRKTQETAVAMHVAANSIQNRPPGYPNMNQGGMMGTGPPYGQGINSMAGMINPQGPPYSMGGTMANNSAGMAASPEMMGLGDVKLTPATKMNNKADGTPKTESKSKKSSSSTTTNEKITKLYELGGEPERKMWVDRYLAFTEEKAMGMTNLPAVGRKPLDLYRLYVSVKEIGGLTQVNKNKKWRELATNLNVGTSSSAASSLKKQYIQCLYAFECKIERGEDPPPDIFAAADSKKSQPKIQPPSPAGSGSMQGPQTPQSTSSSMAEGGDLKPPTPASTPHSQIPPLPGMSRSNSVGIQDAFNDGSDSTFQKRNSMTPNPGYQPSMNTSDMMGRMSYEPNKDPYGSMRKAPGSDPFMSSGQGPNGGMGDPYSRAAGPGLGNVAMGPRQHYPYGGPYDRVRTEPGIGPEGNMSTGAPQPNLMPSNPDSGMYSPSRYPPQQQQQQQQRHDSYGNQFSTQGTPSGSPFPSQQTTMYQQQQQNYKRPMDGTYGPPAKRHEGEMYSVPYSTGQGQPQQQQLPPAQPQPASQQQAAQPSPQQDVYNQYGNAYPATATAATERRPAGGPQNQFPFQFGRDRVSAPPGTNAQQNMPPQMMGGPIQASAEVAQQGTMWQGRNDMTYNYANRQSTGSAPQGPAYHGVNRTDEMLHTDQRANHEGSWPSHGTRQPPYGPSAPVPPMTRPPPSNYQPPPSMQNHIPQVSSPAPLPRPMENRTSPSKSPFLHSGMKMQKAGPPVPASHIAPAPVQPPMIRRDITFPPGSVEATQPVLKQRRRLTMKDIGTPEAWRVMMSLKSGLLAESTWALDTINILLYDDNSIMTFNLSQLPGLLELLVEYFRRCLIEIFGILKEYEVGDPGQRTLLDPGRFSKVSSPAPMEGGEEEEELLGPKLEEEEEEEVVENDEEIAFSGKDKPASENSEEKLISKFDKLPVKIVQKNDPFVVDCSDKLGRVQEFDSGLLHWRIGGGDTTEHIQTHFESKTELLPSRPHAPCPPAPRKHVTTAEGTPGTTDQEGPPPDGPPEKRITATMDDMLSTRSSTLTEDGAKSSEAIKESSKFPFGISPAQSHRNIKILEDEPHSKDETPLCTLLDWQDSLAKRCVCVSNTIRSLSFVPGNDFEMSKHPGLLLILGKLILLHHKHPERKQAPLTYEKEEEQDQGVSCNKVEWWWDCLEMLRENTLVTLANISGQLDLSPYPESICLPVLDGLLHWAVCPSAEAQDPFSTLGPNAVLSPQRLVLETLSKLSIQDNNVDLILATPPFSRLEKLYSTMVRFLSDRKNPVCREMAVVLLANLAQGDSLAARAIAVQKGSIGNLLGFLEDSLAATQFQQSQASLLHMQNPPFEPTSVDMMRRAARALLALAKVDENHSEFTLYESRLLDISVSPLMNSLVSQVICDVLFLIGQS
UniProt Q06413: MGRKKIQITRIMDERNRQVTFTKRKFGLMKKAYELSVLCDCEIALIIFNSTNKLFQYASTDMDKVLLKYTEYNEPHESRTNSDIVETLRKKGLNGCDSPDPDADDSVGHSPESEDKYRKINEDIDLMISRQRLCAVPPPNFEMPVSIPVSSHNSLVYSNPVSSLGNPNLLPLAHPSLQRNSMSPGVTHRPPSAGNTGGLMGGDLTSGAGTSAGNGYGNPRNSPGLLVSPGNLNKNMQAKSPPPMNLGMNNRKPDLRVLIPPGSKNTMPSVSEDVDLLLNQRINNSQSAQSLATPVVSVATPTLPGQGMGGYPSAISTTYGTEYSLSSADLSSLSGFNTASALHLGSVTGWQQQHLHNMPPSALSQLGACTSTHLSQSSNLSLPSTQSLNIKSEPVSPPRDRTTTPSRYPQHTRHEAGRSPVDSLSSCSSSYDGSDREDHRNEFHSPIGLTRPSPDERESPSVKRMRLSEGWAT

Results are given in words; binding and its absence hold for the method and conditions named. Binding seen in cells or lysates may run through a third protein. Some results given as binding are weak or reduced against the parent protein; the word gives no strength.

The target in the assay is ARID1A (human (endogenous in H9 hESCs)) (UniProt O14497). The experiment in a line: co-IP; endogenous proteins from H9 hESC lysates (undifferentiated T0, day 2 or day 6 of cardiac differentiation); Pierce Classic Magnetic IP/Co-IP Kit; detected by Western blotting; IP with anti-ARID1A antibody and, in the reverse direction, of T or MEF2C.

Regarding MEF2C (from UniProt Q06413 1-473), the binding result was “binds”.
